Data published in patent US12180146B2, “Antihypertensive polyol compound and derivative thereof” (TAO PHARMACEUTICAL (SUZHOU) CO., LTD, priority 2020, dated 2024).
At least one structure is not confirmed: it was looked up by name or label, or the drawing left a doubt.

Columns and labels:
[1] = tested on: hypoxic pulmonary hypertension model rats; test: Hypoxic pulmonary hypertension model rats, oral (gavage) treatment for 28 days; format: in vivo, SD rats
Experimental: An animal model of pulmonary hypertension in SD rats was established in a hypoxic and low-pressure environment, and compound 1 was administered by gavage at the same time for treatment. The rat pulmonary artery hemodynamics and right heart hypertrophy index RVHI were measured to determine whether compound 1 has effects of improving hypoxic pulmonary hypertension.
SD rats (purchased from Shanghai Xipuer-Bikai Experimental Animal Co., Ltd.), male, weighing 180-200 g, were bred in an artificially controlled animal room with each 12 hours of light and darkness at a temperature of 20-25° C. and relative humidity of 50-60%, and allowed ad libitum to food and water. The rats were randomly divided into groups according to the experimental requirements, and kept separately in cages, with 3 to 4 rats per cage. All relevant operations of animal experiments are in compliance with the provisions of “Guidelines for the Management and Use of Laboratory Animals” of China.
The hypoxic PAH model was established by placing SD male rats in a fully-automatically regulated low-pressure hypoxic chamber (atmospheric pressure of about 50 kPa, oxygen concentration of 10%) for 8 hours a day for 28 days. The rats in the blank control group were kept in a normoxic environment.
The experimental rats of hypoxic PAH model were divided into 8 groups, namely blank control group, model group, Sidenafil (25 mg/kg) group, compound 1 (10 mg/kg) group, compound 1 (25 mg/kg) group, compound 1 (50 mg/kg) group, compound 1 (100 mg/kg) group, and compound 1 (200 mg/kg) group. The concentration in the parentheses of the group name represents the administration concentration of the compound or drug. In hypoxia-induced PAH experiments, Sidenafil is often used as a positive drug, which can reduce the pulmonary artery pressure in rats and reduce the right ventricular hypertrophy and vascular remodeling. In this experiment, 25 mg/kg of Sidenafil was used as the positive drug. Both the positive drugs Sidenafil and Compound 1 were dissolved in physiological saline and formulated into solutions of different concentrations according to different administration concentrations. The rats were continuously administered for 28 days with an administration volume of 5 ml/kg. Rats in the control and model groups were given the corresponding volume of physiological saline solution via gavage. The specific grouping can be found in Table 5.
After the administration was completed, the POWERLAB biological information acquisition and treatment system was started, and the right cardiac catheter filled with 0.2% heparin sodium (Beijing Solo Technology Co. Ltd.) in normal saline was connected to the pressure transducer and then zero-calibrationed for use. After 20% urethane (Shanghai Yuanye Biotechnology Co., Ltd.) solution was injected into the abdominal cavity of the rats for anesthesia, the right neck hair was shaved and the right jugular vein was isolated and exposed. […] After the typical right ventricular waveform appeared and stabilized for a while, the waveform was recorded, and then the pressure value was read by Powerlab biological information acquisition and processing system (ADInstruments).
After the pressure was measured, the catheter was taken out, and the rat was dissected immediately to take out the heart and lung tissues. The right ventricle (RV) and the left ventricle and interventricular septum (LV+S) were separated and weighed, and the right heart hypertrophy index RVHI=RV/(LV+S) was calculated. The lung lobe tissue from the right lower part of the lung was separated, soaked in 4% paraformaldehyde (Sigma) for about 1 week to prepare a paraffin section with a thickness of 3 μm, and then conducted to hematoxylin-eosin staining (Wuhan Guge Biotechnology Co., Ltd.). […]

[2] = tested on: spontaneously hypertensive rats (SHR); test: Antihypertensive activity test: blood pressure and heart rate of spontaneously hypertensive rats (SHR); format: in vivo, rat; conditions: 200 mg/kg
Experimental: Tested Drugs: Compounds of the Invention. The dosage of all compound was uniformly set to 200 mg/kg.
In the test, changes in the blood pressure before and after the administration were detected, and compared with the basic value, a reduction of SBP ≥20 mmHg after administration was judged as effective antihypertensive effects; and at the same time, changes in the heart rate before and after the administration were detected.
Heart rate was expressed as mean±standard deviation (x±s). The changes of heart rate before and after the administration were compared by using Two-sample equal variance paired t test, and P<0.05 was regarded as the standard of statistically significant difference.

[3] = hypoxic PAH rats, 10 mg/kg, 25 mg/kg and 50 mg/kg, oral, 28 days
[4] = hypoxic PAH rats, 100 mg/kg and 200 mg/kg, oral, 28 days

**Q.** For `CCc1cccc(C(O)CO)c1` (stereo not shown) [Compound 1, 1-(3-ethylphenyl)-1,2-ethylene glycol], which “increase of pulmonary artery pressure in hypoxia-induced pulmonary hypertension rats” value ([1]; 100 mg/kg and 200 mg/kg, intragastric administration for 28 days) is on record?
**A.** can be improved

**Q.** What about the “RVHI compared with the model group” value [1, 3] of the same compound?
**A.** no significant decline

**Q.** What about the “pulmonary vascular pressure compared with the model group” value [1, 3] of the same compound?
**A.** no significant drop

**Q.** And the “pulmonary vascular remodeling compared with the model group” value [1, 3]?
**A.** not alleviated

**Q.** What about the “RVSP and mRVP compared with the untreated model group” value [1, 4] of the same compound?
**A.** significantly lower

**Q.** What about the “hypertrophy of the right heart compared with the model group” value [1, 4] of the same compound?
**A.** significantly improved

**Q.** And the “medium thickness ratio compared with the model group” value [1, 4]?
**A.** significantly improved

**Q.** What about the “antihypertensive duration compared with positive drug metoprolol hydrochloride” value [2] of the same compound?
**A.** similar

**Q.** And the “effect on heart rate while lowering blood pressure” value [2]?
**A.** significantly increase heart rate

**Q.** And the “reduction amplitude in blood pressure compared with positive drug metoprolol hydrochloride” value [2]?
**A.** slightly lower
